Paper PMC3544915

Molecular target: T1, CaHxk1 tagged with the 6xHis-FLAG epitope sequence, expressed under the ADH1 promoter (Candida albicans) (UniProt Q59RW5)
T1 sequence: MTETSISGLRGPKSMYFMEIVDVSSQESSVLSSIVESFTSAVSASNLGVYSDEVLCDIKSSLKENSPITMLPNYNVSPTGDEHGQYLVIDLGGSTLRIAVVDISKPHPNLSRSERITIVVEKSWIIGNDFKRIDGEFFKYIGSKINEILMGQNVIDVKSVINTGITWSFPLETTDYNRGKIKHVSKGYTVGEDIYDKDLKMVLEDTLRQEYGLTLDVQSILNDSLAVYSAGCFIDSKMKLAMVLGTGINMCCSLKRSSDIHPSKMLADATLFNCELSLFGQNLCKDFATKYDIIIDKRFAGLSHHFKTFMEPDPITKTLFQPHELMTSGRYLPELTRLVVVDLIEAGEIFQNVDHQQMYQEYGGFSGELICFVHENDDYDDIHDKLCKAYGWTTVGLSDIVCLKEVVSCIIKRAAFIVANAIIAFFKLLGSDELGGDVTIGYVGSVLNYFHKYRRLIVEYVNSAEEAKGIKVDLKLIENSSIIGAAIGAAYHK
Test: affinity purification with mass spectrometry; two-step (tandem) affinity purification of 6xHis-FLAG Hxk1 from lysate of Spider-induced cells: anti-FLAG M2 agarose overnight at 4°C, FLAG peptide elution, then Ni-NTA agarose 2 hrs at 4°C, 300 mM imidazole elution; NP-40 buffer (50 mM NaH2PO4 pH 8.0, 150 mM NaCl, 1% Nonidet P-40); SDS-PAGE, silver staining, bands identified by mass spectrometry

In the case of “C.albicans Acs1 (Acetyl co-A Synthase) (Candida albicans (endogenous in CAI4)) (enzyme)”, the binding is reported as “binds”.

These are yes or no findings as the source states them, for the method shown. In cells and extracts the contact can be indirect. These calls come from enrichment with a bait or labelling near it, and not all partners need be listed. Where a sequence is shown, tags or fusion partners need not be part of it.
